This is one part of the list.
How the values were obtained:
Experiment in all cases: log2 fold change, soluble protein after heating vs DMSO (PISA); higher = thermal stabilisation; K562 cells, 10 uM, 30 min; active = over 0.2 and 3.5 SD of the protein, either way, in both replicates (recomputed)
[1] = compound: CC1=C(C=C(C=C1)NC(=O)C2=CC(=CC=C2)C(C)(C)C#N)NC3=CC4=C(C=C3)N=CN(C4=O)C
Method in brief: (§1)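 K562 cells at 2×10^6 cells/mL were exposed to 10 μM compound for 30 min, then aliquots were heated for 3 min across 48°C-58°C, pooled, and extracted in PBS containing 0.5% NP-40 at 4°C. The supernatant after 21,000xg for 90 min was taken as soluble protein and measured by TMTpro 16plex LC-MS/MS with channel sums equalised. Thermal stability is reported relative to control samples, with values from duplicates. Fold changes are given on a log2 scale.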

Sequences of proteins named here, by UniProt entry; tags and fusion partners are left off. A change or cut given only in a name is not applied to a line headed by its entry.
UniProt Q15717, whole entry, looked up: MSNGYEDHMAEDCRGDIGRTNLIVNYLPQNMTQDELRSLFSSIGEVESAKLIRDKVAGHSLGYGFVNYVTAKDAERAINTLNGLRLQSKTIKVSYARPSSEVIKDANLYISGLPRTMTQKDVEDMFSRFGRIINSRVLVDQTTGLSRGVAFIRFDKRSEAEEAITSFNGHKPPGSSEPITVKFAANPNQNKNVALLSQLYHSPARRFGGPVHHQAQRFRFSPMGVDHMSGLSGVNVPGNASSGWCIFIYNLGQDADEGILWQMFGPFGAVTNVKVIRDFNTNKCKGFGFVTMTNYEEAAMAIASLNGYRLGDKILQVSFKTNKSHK
UniProt O15371, whole entry, looked up: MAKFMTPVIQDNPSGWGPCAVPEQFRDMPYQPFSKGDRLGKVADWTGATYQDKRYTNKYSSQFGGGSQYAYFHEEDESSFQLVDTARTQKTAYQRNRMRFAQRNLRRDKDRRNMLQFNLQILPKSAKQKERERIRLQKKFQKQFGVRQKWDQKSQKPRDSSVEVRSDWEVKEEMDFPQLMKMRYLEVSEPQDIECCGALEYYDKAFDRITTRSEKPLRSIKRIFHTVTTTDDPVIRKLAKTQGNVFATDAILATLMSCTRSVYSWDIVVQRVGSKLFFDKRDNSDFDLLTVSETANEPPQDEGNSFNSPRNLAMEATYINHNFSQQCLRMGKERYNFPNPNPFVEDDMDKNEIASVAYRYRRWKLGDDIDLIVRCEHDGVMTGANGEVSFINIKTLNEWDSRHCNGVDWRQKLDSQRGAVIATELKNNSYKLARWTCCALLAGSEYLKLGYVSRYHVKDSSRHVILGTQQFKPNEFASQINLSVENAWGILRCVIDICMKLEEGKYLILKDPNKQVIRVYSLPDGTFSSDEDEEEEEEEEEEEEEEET
UniProt Q32P44: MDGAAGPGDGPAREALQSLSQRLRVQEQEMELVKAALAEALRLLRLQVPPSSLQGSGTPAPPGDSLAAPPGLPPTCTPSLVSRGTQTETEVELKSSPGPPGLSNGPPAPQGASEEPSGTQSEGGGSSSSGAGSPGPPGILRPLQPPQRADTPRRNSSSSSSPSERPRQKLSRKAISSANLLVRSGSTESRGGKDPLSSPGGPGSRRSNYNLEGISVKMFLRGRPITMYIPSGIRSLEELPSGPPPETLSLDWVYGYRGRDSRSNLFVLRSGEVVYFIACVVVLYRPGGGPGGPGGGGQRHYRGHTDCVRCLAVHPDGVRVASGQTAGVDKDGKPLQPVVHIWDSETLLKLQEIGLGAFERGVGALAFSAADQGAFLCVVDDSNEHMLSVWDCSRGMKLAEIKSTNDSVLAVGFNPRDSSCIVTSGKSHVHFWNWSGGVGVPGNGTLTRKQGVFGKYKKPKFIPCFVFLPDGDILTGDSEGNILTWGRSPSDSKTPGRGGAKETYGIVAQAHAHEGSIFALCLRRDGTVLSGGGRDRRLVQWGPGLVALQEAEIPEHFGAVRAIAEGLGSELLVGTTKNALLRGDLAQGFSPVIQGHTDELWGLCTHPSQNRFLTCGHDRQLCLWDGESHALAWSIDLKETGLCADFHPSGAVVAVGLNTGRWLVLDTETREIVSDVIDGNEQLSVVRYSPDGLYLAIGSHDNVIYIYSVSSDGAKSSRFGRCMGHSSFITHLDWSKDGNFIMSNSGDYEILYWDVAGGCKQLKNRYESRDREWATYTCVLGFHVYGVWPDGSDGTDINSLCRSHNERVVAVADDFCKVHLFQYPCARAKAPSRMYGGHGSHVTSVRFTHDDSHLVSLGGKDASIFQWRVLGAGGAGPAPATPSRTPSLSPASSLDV
UniProt Q5UCC4: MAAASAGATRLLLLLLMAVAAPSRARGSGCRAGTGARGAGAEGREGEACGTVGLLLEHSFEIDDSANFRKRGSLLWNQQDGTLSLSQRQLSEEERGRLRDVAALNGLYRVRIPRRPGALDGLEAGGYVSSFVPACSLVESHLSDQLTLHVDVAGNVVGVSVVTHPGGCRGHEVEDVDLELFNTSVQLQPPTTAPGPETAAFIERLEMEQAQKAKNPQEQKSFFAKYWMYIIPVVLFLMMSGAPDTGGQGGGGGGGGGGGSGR
UniProt P38919, whole entry, looked up: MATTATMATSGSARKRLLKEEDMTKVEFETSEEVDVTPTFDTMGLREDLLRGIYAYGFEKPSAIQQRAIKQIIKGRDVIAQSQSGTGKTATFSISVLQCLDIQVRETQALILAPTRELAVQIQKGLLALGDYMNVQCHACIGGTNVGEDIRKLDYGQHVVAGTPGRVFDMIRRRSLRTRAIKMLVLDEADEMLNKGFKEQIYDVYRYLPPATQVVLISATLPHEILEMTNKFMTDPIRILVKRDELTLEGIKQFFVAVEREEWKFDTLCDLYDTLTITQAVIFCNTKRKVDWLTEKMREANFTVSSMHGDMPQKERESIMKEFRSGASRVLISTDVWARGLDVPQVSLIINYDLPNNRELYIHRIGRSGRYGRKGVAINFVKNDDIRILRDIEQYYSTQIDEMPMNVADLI
UniProt Q9H223: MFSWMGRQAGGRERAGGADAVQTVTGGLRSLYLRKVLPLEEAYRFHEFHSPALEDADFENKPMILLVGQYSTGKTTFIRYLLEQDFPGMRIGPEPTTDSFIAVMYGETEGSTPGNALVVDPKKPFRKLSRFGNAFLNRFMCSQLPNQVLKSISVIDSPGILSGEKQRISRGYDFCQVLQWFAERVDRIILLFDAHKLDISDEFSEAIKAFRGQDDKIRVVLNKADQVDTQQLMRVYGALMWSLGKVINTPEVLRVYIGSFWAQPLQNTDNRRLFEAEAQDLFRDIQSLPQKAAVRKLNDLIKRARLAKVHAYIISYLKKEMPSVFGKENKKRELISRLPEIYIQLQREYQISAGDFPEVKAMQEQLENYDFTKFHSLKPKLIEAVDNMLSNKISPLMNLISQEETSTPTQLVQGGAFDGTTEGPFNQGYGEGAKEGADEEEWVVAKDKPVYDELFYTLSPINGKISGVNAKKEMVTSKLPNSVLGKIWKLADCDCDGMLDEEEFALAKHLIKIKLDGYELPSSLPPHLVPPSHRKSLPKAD
UniProt Q8TE02: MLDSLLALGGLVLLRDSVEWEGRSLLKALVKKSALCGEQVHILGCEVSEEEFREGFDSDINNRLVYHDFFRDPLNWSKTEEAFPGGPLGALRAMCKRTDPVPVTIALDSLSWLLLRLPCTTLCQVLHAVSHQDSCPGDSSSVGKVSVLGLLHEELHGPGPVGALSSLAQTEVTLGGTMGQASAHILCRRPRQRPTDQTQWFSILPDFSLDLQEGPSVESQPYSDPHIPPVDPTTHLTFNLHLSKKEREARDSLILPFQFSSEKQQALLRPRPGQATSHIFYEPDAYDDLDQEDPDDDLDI
UniProt Q92979: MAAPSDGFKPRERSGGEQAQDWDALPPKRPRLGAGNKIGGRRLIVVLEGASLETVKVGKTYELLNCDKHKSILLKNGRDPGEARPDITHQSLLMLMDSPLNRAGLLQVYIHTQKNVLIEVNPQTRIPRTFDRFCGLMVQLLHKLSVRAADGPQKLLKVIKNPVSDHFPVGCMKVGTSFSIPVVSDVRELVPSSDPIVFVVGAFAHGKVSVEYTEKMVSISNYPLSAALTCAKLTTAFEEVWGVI
UniProt Q9H4M9: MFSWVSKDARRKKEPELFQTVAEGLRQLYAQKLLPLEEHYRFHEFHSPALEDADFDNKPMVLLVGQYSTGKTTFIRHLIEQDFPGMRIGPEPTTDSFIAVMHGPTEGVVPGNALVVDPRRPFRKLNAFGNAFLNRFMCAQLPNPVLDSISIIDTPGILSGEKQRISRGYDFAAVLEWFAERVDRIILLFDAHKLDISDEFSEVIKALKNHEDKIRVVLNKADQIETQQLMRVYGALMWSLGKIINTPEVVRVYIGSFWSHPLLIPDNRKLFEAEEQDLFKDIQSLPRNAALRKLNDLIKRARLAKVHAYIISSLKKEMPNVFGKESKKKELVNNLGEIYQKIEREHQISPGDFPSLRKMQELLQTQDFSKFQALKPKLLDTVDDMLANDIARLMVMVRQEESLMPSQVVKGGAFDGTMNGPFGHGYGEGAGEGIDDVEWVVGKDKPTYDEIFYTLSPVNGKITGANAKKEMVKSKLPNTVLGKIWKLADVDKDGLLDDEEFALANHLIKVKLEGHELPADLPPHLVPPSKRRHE
UniProt Q9P0I2: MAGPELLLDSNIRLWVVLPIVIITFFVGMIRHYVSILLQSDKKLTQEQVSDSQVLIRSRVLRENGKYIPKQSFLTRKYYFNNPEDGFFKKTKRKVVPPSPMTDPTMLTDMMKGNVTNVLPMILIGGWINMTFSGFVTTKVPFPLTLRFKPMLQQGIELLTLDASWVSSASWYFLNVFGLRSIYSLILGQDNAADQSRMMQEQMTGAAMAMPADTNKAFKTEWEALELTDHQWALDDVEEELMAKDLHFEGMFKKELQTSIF
UniProt O60841: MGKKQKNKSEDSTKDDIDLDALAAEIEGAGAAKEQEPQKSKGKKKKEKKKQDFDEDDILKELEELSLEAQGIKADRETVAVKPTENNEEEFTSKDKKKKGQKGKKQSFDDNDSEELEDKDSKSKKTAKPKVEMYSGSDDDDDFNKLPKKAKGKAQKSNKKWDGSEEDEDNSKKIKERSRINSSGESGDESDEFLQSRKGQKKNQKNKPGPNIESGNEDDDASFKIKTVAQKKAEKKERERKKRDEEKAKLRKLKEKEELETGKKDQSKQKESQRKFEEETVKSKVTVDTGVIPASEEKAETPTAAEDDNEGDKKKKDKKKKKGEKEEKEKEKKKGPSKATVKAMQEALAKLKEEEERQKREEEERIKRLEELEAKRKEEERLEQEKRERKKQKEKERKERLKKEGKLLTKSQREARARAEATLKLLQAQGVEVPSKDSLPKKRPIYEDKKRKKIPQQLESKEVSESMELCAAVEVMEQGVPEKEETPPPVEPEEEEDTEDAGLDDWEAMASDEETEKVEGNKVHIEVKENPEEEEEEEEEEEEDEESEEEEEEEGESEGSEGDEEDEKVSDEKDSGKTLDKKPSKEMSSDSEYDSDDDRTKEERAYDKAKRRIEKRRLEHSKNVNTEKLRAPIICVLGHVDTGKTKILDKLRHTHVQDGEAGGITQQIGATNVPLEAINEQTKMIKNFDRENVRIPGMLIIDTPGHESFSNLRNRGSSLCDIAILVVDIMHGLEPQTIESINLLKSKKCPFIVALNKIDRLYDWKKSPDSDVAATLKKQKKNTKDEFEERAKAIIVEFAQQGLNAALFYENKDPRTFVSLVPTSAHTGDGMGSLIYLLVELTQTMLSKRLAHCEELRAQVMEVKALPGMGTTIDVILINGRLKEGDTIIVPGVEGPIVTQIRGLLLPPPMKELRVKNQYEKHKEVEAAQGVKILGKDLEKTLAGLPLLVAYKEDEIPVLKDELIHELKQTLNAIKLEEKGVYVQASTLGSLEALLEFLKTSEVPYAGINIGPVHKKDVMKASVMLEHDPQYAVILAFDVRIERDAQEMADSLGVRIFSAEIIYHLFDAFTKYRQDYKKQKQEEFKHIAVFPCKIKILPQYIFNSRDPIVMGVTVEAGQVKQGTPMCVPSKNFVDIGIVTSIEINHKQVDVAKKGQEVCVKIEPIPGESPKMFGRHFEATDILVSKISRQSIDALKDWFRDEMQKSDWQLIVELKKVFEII
UniProt Q05639, whole entry, looked up: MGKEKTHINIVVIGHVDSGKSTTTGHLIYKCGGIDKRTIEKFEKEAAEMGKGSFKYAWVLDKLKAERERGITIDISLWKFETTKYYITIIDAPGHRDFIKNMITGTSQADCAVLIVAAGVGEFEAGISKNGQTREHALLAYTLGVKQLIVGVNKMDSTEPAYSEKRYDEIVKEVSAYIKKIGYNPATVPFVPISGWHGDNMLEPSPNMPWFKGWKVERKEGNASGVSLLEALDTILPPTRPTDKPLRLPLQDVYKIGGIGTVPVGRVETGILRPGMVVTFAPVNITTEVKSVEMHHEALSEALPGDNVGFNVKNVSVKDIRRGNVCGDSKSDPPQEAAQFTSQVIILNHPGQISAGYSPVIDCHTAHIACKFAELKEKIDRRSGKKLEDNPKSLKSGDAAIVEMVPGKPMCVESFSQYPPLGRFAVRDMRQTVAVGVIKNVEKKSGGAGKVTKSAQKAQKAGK

[2] = compound: CC1=C(C=C(C=C1)NC(=O)C2=CC(=CC=C2)N(C)C)NC(=O)C3=CC=C(C=C3)O
Method in brief: as §1

[3] = compound: CC1=CC=C(C=C1)SC2=C3C=C(SC3=CN=C2)C(=O)N
Method in brief: as §1

[4] = compound: CC1=NC(=CC=C1)C2=C(N=C(N2)C(C)(C)C)C3=CC4=NC=CN=C4C=C3
Method in brief: as §1

[5] = compound: CCCCN(Cc1ccc(C(=O)NO)cc1)C(=O)Nc1ccccc1 [Nexturastat A]
Method in brief: as §1

[6] = compound: CCCS(=O)(=O)Nc1ccc(F)c(C(=O)c2c[nH]c3ncc(-c4ccc(Cl)cc4)cc23)c1F [vemurafenib]
Method in brief: as §1

[7] = compound: CCCS(=O)(=O)Nc1ccc(F)c(C(=O)c2c[nH]c3ncc(Cl)cc23)c1F
Method in brief: as §1

[8] = compound: CCCc1cc(C)[nH]c(=O)c1CNC(=O)c1cc(-c2ccnc(N3CCN(C)CC3)c2)cc2c1cnn2C(C)C
Method in brief: as §1

[9] = compound: CCN(CC)Cc1ccc2cc(COC(=O)Nc3ccc(C(=O)NO)cc3)ccc2c1 [givinostat]
Method in brief: as §1

[10] = compound: CCN(CCCOc1ccc2c(Nc3cc(CC(=O)Nc4cccc(F)c4)[nH]n3)ncnc2c1)CCOP(=O)(O)O [barasertib]
Method in brief: as §1

[11] = compound: CC[C@@H]1C(=O)N(C)c2cnc(Nc3ccc(C(=O)NC4CCN(C)CC4)cc3OC)nc2N1C1CCCC1
Method in brief: as §1

[12] = compound: CC[C@@H]1C(=O)N(C)c2cnc(Nc3ccc(C(=O)N[C@H]4CC[C@H](N5CCN(CC6CC6)CC5)CC4)cc3OC)nc2N1C(C)C [volasertib]
Method in brief: as §1

[13] = compound: CC[C@H](C)N1C=C(C2=C(C=C(C=C21)C3=CN=C(C=C3)N4CCNCC4)C(=O)NCC5=C(C=C(NC5=O)C)C)C
Method in brief: as §1

[14] = compound: CC[C@H](C)[C@@H](C(=O)N[C@@H]([C@@H](C)O)C(=O)N[C@@H](CC(C)C)C(=O)[C@]1(CO1)C)NC(=O)[C@H]([C@@H](C)CC)N(C)C(=O)C [epoxomicin]
Method in brief: as §1

[15] = compound: CCn1c(C(=O)N(C2CC2)C2CC2)cc2c3c(ncn3C)c(Nc3cc(C)n(C)n3)nc21
Method in brief: as §1

[16] = compound: CCn1cc(-c2ccnc3[nH]c(-c4cccc(CN(C)C)c4)cc23)c(-c2ccc(NC(=O)N(C)C)cc2)n1
Method in brief: as §1

[17] = compound: CN(C)CC(=O)Nc1ccc2[nH]c(=O)c3ccccc3c2c1
Method in brief: as §1

[18] = compound: CN(CCOC1=CC=C(C=C1)C[C@H]2C(=O)NC(=O)S2)C3=CC=CC=N3 (racemic) [rosiglitazone]
Method in brief: as §1

[19] = compound: CN1C2=C(C3=C1C(=O)N(N=C3)CC4=CC(=CC=C4)N)SC(=C2)S(=O)C
Method in brief: as §1

[20] = compound: CN1CCC(CNc2ccc3ncc(-c4cccc(OC(F)(F)F)c4)n3n2)CC1
Method in brief: as §1

Measured: log2 fold change

ELAVL1 isoform 2 (UniProt Q15717)
inactive: [1] 0.099 | [2] 0.01 | [3] -0.117 | [4] 0.041 | [5] 0.267 | [6] 0.083 | [7] 0.029 | [8] 0.081 | [9] 0.111 | [10] -0.009 | [11] 0.147 | [12] -0.262 | [13] 0.009 | [14] -0.105 | [15] -0.031 | [16] 0.167 | [17] -0.075 | [18] -0.098 | [19] 0.311 | [20] 0.014

EIF3D (UniProt O15371)
inactive: [1] 0.02 | [2] -0.024 | [3] 0.072 | [4] 0.006 | [5] 0.323 | [6] 0.007 | [7] 0.085 | [8] 0.118 | [9] 0.148 | [10] 0.082 | [11] -0.01 | [12] -0.33 | [13] 0.155 | [14] 0.044 | [15] -0.099 | [16] 0.08 | [17] 0.052 | [18] 0.083 | [19] 0.241 | [20] -0.121

EML3 isoform 2 (UniProt Q32P44)
inactive: [1] -0.038 | [2] 0.081 | [3] -0.014 | [4] -0.092 | [5] 0.264 | [6] -0.086 | [7] -0.048 | [8] 0.159 | [9] 0.113 | [10] -0.017 | [11] 0.058 | [12] 0.032 | [13] 0.007 | [14] -0.093 | [15] -0.025 | [16] 0.066 | [17] -0.113 | [18] 0.103 | [19] 0.007 | [20] 0.004

EMC10 (UniProt Q5UCC4)
inactive: [1] -0.03 | [2] -0.047 | [3] -0.006 | [4] 0.002 | [5] -0.122 | [6] 0.043 | [7] 0.018 | [8] 0.01 | [9] -0.01 | [10] 0.027 | [11] -0.035 | [12] 0.023 | [13] 0.004 | [14] 0.012 | [15] 0.018 | [16] -0.055 | [17] 0.041 | [18] -0.014 | [19] -0.064 | [20] 0.052

EIF4A3 (UniProt P38919)
inactive: [1] 0.01 | [2] -0.018 | [3] -0.033 | [4] 0.002 | [5] -0.05 | [6] 0.002 | [7] 0.002 | [8] -0.02 | [9] 0.019 | [10] 0.052 | [11] -0.012 | [12] 0.021 | [13] -0.013 | [14] 0.012 | [15] -0.02 | [16] -0.009 | [17] 0.019 | [18] 0.039 | [19] -0.035 | [20] 0.094

EHD4 (UniProt Q9H223)
inactive: [1] -0.019 | [2] -0.012 | [3] 0 | [4] 0.031 | [5] -0.075 | [6] 0.014 | [7] 0.033 | [8] -0.003 | [9] 0.003 | [10] 0.029 | [11] -0.066 | [12] -0.196 | [13] 0.016 | [14] 0.033 | [15] 0 | [16] -0.022 | [17] 0.013 | [18] 0.04 | [19] -0.046 | [20] -0.108

ELP5 isoform 4 (UniProt Q8TE02)
inactive: [1] -0.062 | [2] 0.013 | [3] -0.076 | [4] -0.025 | [5] 0.087 | [6] -0.049 | [7] -0.074 | [8] -0.084 | [9] 0.011 | [10] -0.012 | [11] 0.085 | [12] 0.102 | [13] -0.01 | [14] -0.019 | [15] 0.056 | [16] 0.001 | [17] -0.04 | [18] -0.025 | [19] -0.042 | [20] 0.029

EMG1 (UniProt Q92979)
inactive: [1] 0.04 | [2] 0.007 | [3] -0.044 | [4] 0.038 | [5] 0.091 | [6] -0.034 | [7] 0 | [8] -0.001 | [9] -0.089 | [10] -0.091 | [11] 0.087 | [12] 0.082 | [13] -0.024 | [14] -0.064 | [15] 0.031 | [16] 0.067 | [17] -0.07 | [18] -0.081 | [19] 0.044 | [20] 0.113

EHD1 (UniProt Q9H4M9)
inactive: [1] -0.006 | [2] 0.014 | [3] 0.018 | [4] 0.043 | [5] -0.071 | [6] 0.036 | [7] 0.031 | [8] -0.017 | [9] 0.033 | [10] 0.014 | [11] -0.052 | [12] -0.106 | [13] 0.035 | [14] 0.049 | [15] 0.013 | [16] -0.029 | [17] 0.036 | [18] 0.041 | [19] -0.047 | [20] -0.051

EMC3 (UniProt Q9P0I2)
inactive: [1] 0.039 | [2] -0.016 | [3] 0.002 | [4] 0.015 | [5] -0.027 | [6] 0.037 | [7] 0.019 | [8] -0.076 | [9] -0.027 | [10] -0.012 | [11] -0.062 | [12] -0.016 | [13] 0.012 | [14] 0.041 | [15] -0.026 | [16] -0.112 | [17] 0.015 | [18] 0.021 | [19] -0.051 | [20] 0.049

Reprinted from above (2 entries):
EML3 isoform 2 (UniProt Q32P44)
inactive: [1] -0.038 | [2] 0.081 | [3] -0.014 | [4] -0.092 | [5] 0.264 | [6] -0.086 | [7] -0.048 | [8] 0.159 | [9] 0.113 | [10] -0.017 | [11] 0.058 | [12] 0.032 | [13] 0.007 | [14] -0.093 | [15] -0.025 | [16] 0.066 | [17] -0.113 | [18] 0.103 | [19] 0.007 | [20] 0.004

EMC10 (UniProt Q5UCC4)
inactive: [1] -0.03 | [2] -0.047 | [3] -0.006 | [4] 0.002 | [5] -0.122 | [6] 0.043 | [7] 0.018 | [8] 0.01 | [9] -0.01 | [10] 0.027 | [11] -0.035 | [12] 0.023 | [13] 0.004 | [14] 0.012 | [15] 0.018 | [16] -0.055 | [17] 0.041 | [18] -0.014 | [19] -0.064 | [20] 0.052

More entries follow.

EIF6 (UniProt P56537)
inactive: [1] -0.044 | [2] 0.04 | [3] -0.031 | [4] 0.009 | [5] 0.039 | [6] -0.044 | [7] -0.081 | [8] -0.005 | [9] -0.005 | [10] 0.009 | [11] 0.062 | [12] 0.084 | [13] -0.079 | [14] -0.024 | [15] -0.012 | [16] 0.035 | [17] -0.035 | [18] -0.033 | [19] 0.011 | [20] -0.018

EI24 (UniProt O14681)
inactive: [1] -0.056 | [2] 0.037 | [3] 0.013 | [4] 0.147 | [5] -0.112 | [6] 0.05 | [7] 0.023 | [8] -0.083 | [9] -0.02 | [10] -0.03 | [11] -0.054 | [12] -0.065 | [13] -0.032 | [14] 0.004 | [15] -0.043 | [16] -0.053 | [17] 0.028 | [18] 0.042 | [19] -0.059 | [20] -0.015

EIF5B (UniProt O60841)
inactive: [1] 0.075 | [2] -0.007 | [3] 0.017 | [4] -0.021 | [5] 0.069 | [6] 0.032 | [7] 0.054 | [8] 0.108 | [9] 0.031 | [10] 0.006 | [11] 0.076 | [12] 0.042 | [13] 0.041 | [14] -0.044 | [15] 0.01 | [16] 0.02 | [17] -0.024 | [18] -0.007 | [19] -0.001 | [20] 0.074

EEF1A2 (UniProt Q05639)
inactive: [1] -0.024 | [2] 0.002 | [3] 0.009 | [4] 0.011 | [5] -0.069 | [6] 0.026 | [7] 0 | [8] -0.035 | [9] -0.011 | [10] 0.007 | [11] 0.012 | [12] 0.05 | [13] 0.005 | [14] -0.014 | [15] 0.027 | [16] -0.006 | [17] -0.038 | [18] 0.05 | [19] -0.089 | [20] -0.047

EEF2 (UniProt P13639)
inactive: [1] 0.021 | [2] 0.007 | [3] -0.001 | [4] 0.027 | [5] -0.058 | [6] 0.011 | [7] -0.012 | [8] 0.038 | [9] -0.051 | [10] 0.001 | [11] 0.005 | [12] 0.057 | [13] -0.003 | [14] 0.034 | [15] 0.013 | [16] 0.002 | [17] -0.002 | [18] 0.008 | [19] -0.044 | [20] 0.015

Source: the supplement of paper PMC10849652
